This is an account of results in PubChem BioAssay AID2685 (National Center for Advancing Translational Sciences (NCATS), 2010).

Structures are written as SMILES. The list shows a part of the results. These are further read-outs of the screen, such as a control signal, another cell line or another target. No call is given for them. Most of these compounds were active or inconclusive in the main read-out, so they are no random draw. The note in brackets gives the kind of curve behind each potency; many fits are weak.

The assay is described as follows: qHTS Assay for Lipid Storage Modulators in Drosophila S3 Cells.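 On cell number change: cells counted by Cell Tracker Red CMTPX staining in the red channel.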 The note with it: BODIPY lipid droplet fluorescence, 18-24 h; for cell number change: measured here: cell count max response, cells fed with added oleic acid. In short, it runs like this:
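Drosophila S3 cells got compounds at several concentrations plus oleic acid (400 uM solution). Laser-scanning cytometry with 488 nm excitation read lipid droplets at 500-530 nm and cells at 575-640 nm. Percent activity was relative to 20 uM Triacsin C.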
In general terms: In qHTS, concentration-response curves come from the screen itself.

Where [1] appears, read: measured here: lipid fluorescence (Fed channel) AC50, cells fed with added oleic acid.
The mark [2] stands for this setting: measured here: cell number channel AC50, cells fed with added oleic acid.

The term AC50 denotes the midpoint of the concentration-response curve, whichever way the signal moves. A high value points to weaker potency.

Turning to `CCN(CC(=O)Nc1ccccc1C(F)(F)F)C(=O)c1ccccc1Sc1ccccc1C#N`, the cell number change worked out at 17%. In addition, the AC50 under setting [1] was 16.4 µM [falling, single point].
For the compound `Cc1ccc(NC(=O)C2C3C=CC4(O3)C2C(=O)N(CCCN2CCCCC2)C4C(=O)NC2CCCCC2)cc1Cl` (stereo not given), the cell number change was 9.68%.
For the compound `CC(C)c1ccc(CN2CCC(Oc3ccc(C(=O)N4CCCC4)cc3)CC2)cc1`, the cell number change is 35.3%. For the same compound, the AC50 under setting [2] was 1.41 µM [rising, full curve, poor fit]. The concentration at half-maximal activity (AC50) under setting [1] was 3.55 µM [rising, full curve, poor fit].
With `CCOC(=O)c1ccc(NC(=O)CSc2nc3cccnc3n2C)cc1`, the cell number change is -54.6%. Moreover, the AC50 under setting [2] was 13 µM [falling, partial curve]. The AC50 under setting [1] was 16.4 µM [falling, partial curve].
For the compound `CCc1ccc(S(=O)(=O)Nc2c(C)nn(C)c2C)cc1`, the cell number change was -51.9%. The AC50 under setting [2] is 29.1 µM [falling, single point]. The AC50 under setting [1] is 1.3 µM [rising, partial curve].
With `COC(=O)c1cccc(NC(=O)c2cccs2)c1C`, the AC50 was 1.16 µM [rising, full curve] under setting [2] and 0.731 µM [rising, single point] under setting [1].
Turning to `CCOc1ccc(-n2c(SCC(=O)Nc3cc(C(=O)O)ccc3Cl)nc3ccccc3c2=O)cc1`, the cell number change is 24.4%. Besides, the AC50 under setting [2] was 1.03 µM [rising, full curve, poor fit].
On to `O=C(O)c1cc2c(ccc3ccccc32)[nH]1`, for which the cell number change was -1.02%. The AC50 under setting [1] is 3.26 µM [falling, single point].
In the case of `Cc1ccc(CNC(=O)CCCCCNC(=O)N2CCn3c2nc2ccccc23)cc1`, the cell number change was -10.4%. The AC50 under setting [1] was 0.58 µM [rising, single point].
On to `C=C(C)C(=O)N1CC2(CC(c3cccc(NC(=O)c4ccccc4)c3)=NO2)C[C@@H]1C(N)=O` (stereo not given in full), for which the cell number change turned out to be 182%. The AC50 under setting [2] was 29.1 µM [rising, single point]. In addition, the AC50 under setting [1] was 23.1 µM [rising, single point].
For the compound `C[C@H](NC(=O)[C@H]1N2C(=O)c3ccccc3C2SC1(C)C)C(=O)N1CCCCC1` (stereo not given in full), the AC50 under setting [1] was 4.11 µM [falling, partial curve].
Consider `Cc1ccc2[nH]c3nc(NN)nnc3c2c1`, for which the cell number change was -14%. Further, the AC50 under setting [1] is 23.1 µM [falling, single point].
As to `COc1cc([N+](=O)[O-])ccc1N/C=C/C(=O)c1cccs1`, the AC50 under setting [1] was 29.1 µM [falling, single point].
As for `Nc1ccc(C(=O)NCC(=O)O)cc1`, the cell number change came to 13.5%. Moreover, under setting [1], the AC50 is 0.411 µM [rising, full curve, poor fit].
With `O=C(NNc1ccc([N+](=O)[O-])cc1)C1CC1c1ccccc1` (stereo not given), the cell number change is -4.33%. For the same compound, under setting [1], the AC50 was 20.6 µM [rising, single point].
Consider `COc1ccc(NS(=O)(=O)c2ccc(N)cc2)nn1`, for which the cell number change is -23.1%. Moreover, the AC50 under setting [1] is 0.731 µM [falling, full curve, poor fit].
As for `Cc1ccsc1C(=O)N(C)CC(=O)N(CC(C)C)c1c(N)n(CC(C)C)c(=O)[nH]c1=O`, the cell number change is 6.02%.
As to `Cc1[nH]nc2c1C(c1ccc(N(C)C)cc1)C1=C(CC(C)(C)CC1=O)N2` (stereo not given), the cell number change was -5.87%. Besides, the AC50 under setting [1] is 31.6 µM [rising, single point].
In the case of `COc1ccc(/C=N/NC(=O)c2ccoc2C)cc1COc1c(C)cccc1C`, the cell number change was -22.5%. In addition, the AC50 under setting [1] is 2.59 µM [rising, full curve, poor fit].
With `O=C1CSC(c2ccc(Cl)cc2)N1C1CCCCC1` (stereo not given), the cell number change came out at 19.7%. For the same compound, the AC50 under setting [2] is 0.00517 µM [rising, full curve, poor fit].
Regarding `O=C(NCCc1ccc(Cl)cc1)c1cc(-c2ccccn2)nc2ccccc12`, the cell number change was -5.44%. Moreover, the AC50 under setting [1] was 2.91 µM [rising, single point].
Regarding `Cc1nc(NCC2CCCO2)nc2c1C(=O)CC(C)C2` (stereo not given), the cell number change was determined as 6.15%. Also, the AC50 under setting [1] was 6.51 µM [falling, single point].
For the compound `COc1c(C)cccc1C(=O)Nc1ccc(OCC(=O)N2CCOCC2)cc1C`, the cell number change turned out to be 24.9%.
For the compound `COc1ccc(Cc2nnc(SCC(=O)N(C)CC(=O)Nc3ccc(C)cc3)o2)cc1`, the cell number change worked out at 54.8%. Under setting [2], the AC50 was 13 µM [rising, partial curve]. For the same compound, the AC50 under setting [1] was 20.6 µM [rising, partial curve].
As for `O=c1c2cn[nH]c2[nH]c(=S)n1-c1ccccc1Cl`, the cell number change is -37.9%. Moreover, under setting [2], the AC50 is 32.6 µM [falling, single point].
Regarding `CC1CCCCN1C(=O)C(=O)c1cn(CC(=O)N2CCCC2)c2ccccc12` (stereo not given), the cell number change was -24%. In addition, under setting [1], the AC50 was 6.51 µM [falling, single point].
As to `CC(NC(=O)CN1C(=O)NC2(CCCCC2C)C1=O)c1ccccc1` (stereo not given), the cell number change is 11%. The AC50 under setting [1] was 3.66 µM [rising, partial curve, poor fit].
Consider `CCOC(=O)N1CCC(NC(=O)C2CCN(S(=O)(=O)c3cnc[nH]3)CC2)CC1`, for which the cell number change is -9.6%. For the same compound, the AC50 under setting [1] is 25.9 µM [falling, partial curve, poor fit].
Turning to `O=C(COC(=O)c1cccnc1Cl)Nc1cc(S(=O)(=O)N2CCOCC2)ccc1Cl`, the cell number change was 0.137%. The AC50 under setting [1] was 6.51 µM [falling, single point].
Consider `CCOC(=O)COc1ccc2cc(C(=O)OCC)c(=O)oc2c1`, for which the cell number change is -12.9%. The AC50 under setting [1] is 0.0651 µM [falling, full curve, poor fit].
For `C/C(=N\NC(=O)CNc1cccc(C(F)(F)F)c1)c1cccc(Br)c1`, the cell number change is -65.8%. In addition, the AC50 under setting [2] was 11.6 µM [falling, partial curve]. Moreover, the AC50 under setting [1] is 11.6 µM [falling, partial curve].
As for `Cc1ccc(NC(=O)N2CCc3ccccc3C2)cc1C`, the cell number change worked out at 13.9%. For the same compound, the AC50 under setting [2] was 6.51 µM [rising, single point].
In the case of `Cc1cc(Cl)ccc1OCC(=O)Nc1ccc(CN2CCOCC2)cc1`, the cell number change is -25.7%.
In the case of `CCOC(=O)c1sc(NC(=O)CN2CCCC2)c(C(=O)OCC)c1C`, the cell number change is 0.139%. For the same compound, the AC50 under setting [2] was 0.366 µM [falling, single point]. The AC50 under setting [1] is 29.1 µM [falling, single point].
For the compound `CCCN1CCC(=O)N([C@H](CSc2ccc(C)cc2)c2ccccc2)CC1`, the cell number change was 22.4%. In addition, the AC50 under setting [1] is 16.4 µM [rising, partial curve].
For the compound `Cc1ccc(C)n1-c1ccc(C(=O)NN)s1`, the cell number change was determined as 3.3%. The concentration at half-maximal activity (AC50) under setting [2] is 0.103 µM [rising, partial curve, poor fit]. Also, under setting [1], the AC50 was 1.03 µM [rising, full curve].
Take `O=C(Nc1cccc(Br)c1)c1cccc(OC(=S)N2CCOCC2)c1`: the cell number change is -18.8%.
